According to paper doi:10.1101/2020.11.16.384750:
Results are given in words; binding and its absence hold for the method and conditions named. Binding seen in cells or lysates may run through a third protein. Here binding means that the protein was enriched with, or labelled near, the bait; the list need not be complete. Where a sequence is shown, tags or fusion partners need not be part of it.

T1: MAP3K7 (TAK1), C-terminal His-GSG-Flag tagged bait (UniProt O43318)
T1 sequence: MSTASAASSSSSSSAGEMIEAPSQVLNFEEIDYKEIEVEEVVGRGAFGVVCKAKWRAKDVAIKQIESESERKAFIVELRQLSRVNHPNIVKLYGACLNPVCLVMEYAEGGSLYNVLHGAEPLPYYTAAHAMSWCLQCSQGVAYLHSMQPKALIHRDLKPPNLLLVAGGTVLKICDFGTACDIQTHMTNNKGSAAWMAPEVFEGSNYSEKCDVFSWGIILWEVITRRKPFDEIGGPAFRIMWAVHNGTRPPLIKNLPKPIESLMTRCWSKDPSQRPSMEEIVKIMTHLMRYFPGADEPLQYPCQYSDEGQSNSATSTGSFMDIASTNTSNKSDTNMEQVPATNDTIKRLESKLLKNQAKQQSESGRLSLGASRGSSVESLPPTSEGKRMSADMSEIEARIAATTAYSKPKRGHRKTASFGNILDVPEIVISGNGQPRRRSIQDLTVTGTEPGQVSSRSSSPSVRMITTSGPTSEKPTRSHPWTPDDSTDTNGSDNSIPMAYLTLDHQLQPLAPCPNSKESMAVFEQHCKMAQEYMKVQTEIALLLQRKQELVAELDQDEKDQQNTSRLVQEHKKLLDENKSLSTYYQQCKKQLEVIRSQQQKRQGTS

T2: TRAF2, C-terminal His-GSG-Flag tagged bait (wild type) (UniProt Q12933)
T2 sequence: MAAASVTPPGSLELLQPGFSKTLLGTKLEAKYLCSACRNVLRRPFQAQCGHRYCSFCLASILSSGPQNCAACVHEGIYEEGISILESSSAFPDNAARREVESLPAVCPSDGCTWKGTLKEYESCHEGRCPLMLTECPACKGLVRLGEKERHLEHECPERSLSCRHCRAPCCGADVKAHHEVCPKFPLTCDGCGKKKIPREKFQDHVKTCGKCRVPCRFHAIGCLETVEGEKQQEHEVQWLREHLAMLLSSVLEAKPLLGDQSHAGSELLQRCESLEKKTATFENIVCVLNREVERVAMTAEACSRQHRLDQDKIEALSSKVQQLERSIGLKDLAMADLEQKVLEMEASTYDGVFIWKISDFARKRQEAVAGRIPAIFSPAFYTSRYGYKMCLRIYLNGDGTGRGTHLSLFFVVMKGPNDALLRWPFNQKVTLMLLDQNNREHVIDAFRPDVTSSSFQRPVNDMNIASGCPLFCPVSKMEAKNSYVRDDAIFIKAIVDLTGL

B1: FOSB (protein, UniProt P53539 1-338)
chain: MFQAFPGDYDSGSRCSSSPSAESQYLSSVDSFGSPPTAAASQECAGLGEMPGSFVPTVTAITTSQDLQWLVQPTLISSMAQSQGQPLASQPPVVDPYDMPGTSYSTPGMSGYSSGGASGSGGPSTSGTTSGPGPARPARARPRRPREETLTPEEEEKRRVRRERNKLAAAKCRNRRRELTDRLQAETDQLEEEKAELESEIAELQKEKERLEFVLVAHKPGCKIPYEEGPGPGPLAEVRDLPGSAPAKEDGFSWLLPPPPPPPLPFQTSQDAPPNLTASLFTHSEVQVLGDPFPVVNPSYTSSFVLTCPEVSAFAGAQRTSGSDQPSDPLNSPSLLAL
B2: TAB3 (protein, UniProt Q8N5C8 1-712)
chain: MAQSSPQLDIQVLHDLRQRFPEIPEGVVSQCMLQNNNNLEACCRALSQESSKYLYMEYHSPDDNRMNRNRLLHINLGIHSPSSYHPGDGAQLNGGRTLVHSSSDGHIDPQHAAGKQLICLVQEPHSAPAVVAATPNYNPFFMNEQNRSAATPPSQPPQQPSSMQTGMNPSAMQGPSPPPPPPSYMHIPRYSTNPITVTVSQNLPSGQTVPRALQILPQIPSNLYGSPGSIYIRQTSQSSSGRQTPQSTPWQSSPQGPVPHYSQRPLPVYPHQQNYQPSQYSPKQQQIPQSAYHSPPPSQCPSPFSSPQHQVQPSQLGHIFMPPSPSTTPPHPYQQGPPSYQKQGSHSVAYLPYTASSLSKGSMKKIEITVEPSQRPGTAINRSPSPISNQPSPRNQHSLYTATTPPSSSPSRGISSQPKPPFSVNPVYITYTQPTGPSCTPSPSPRVIPNPTTVFKITVGRATTENLLNLVDQEERSAAPEPIQPISVIPGSGGEKGSHKYQRSSSSGSDDYAYTQALLLHQRARMERLAKQLKLEKEELERLKSEVNGMEHDLMQRRLRRVSCTTAIPTPEEMTRLRSMNRQLQINVDCTLKEVDLLQSRGNFDPKAMNNFYDNIEPGPVVPPKPSKKDSSDPCTIERKARRISVTSKVQADIHDTQAAAADEHRTGSTQSPRTQPRDEDYEGAPWNCDSCTFLNHPALNRCEQCEMPRYT
B3: TAB2 (protein, UniProt Q9NYJ8 1-693)
chain: MAQGSHQIDFQVLHDLRQKFPEVPEVVVSRCMLQNNNNLDACCAVLSQESTRYLYGEGDLNFSDDSGISGLRNHMTSLNLDLQSQNIYHHGREGSRMNGSRTLTHSISDGQLQGGQSNSELFQQEPQTAPAQVPQGFNVFGMSSSSGASNSAPHLGFHLGSKGTSSLSQQTPRFNPIMVTLAPNIQTGRNTPTSLHIHGVPPPVLNSPQGNSIYIRPYITTPGGTTRQTQQHSGWVSQFNPMNPQQVYQPSQPGPWTTCPASNPLSHTSSQQPNQQGHQTSHVYMPISSPTTSQPPTIHSSGSSQSSAHSQYNIQNISTGPRKNQIEIKLEPPQRNNSSKLRSSGPRTSSTSSSVNSQTLNRNQPTVYIAASPPNTDELMSRSQPKVYISANAATGDEQVMRNQPTLFISTNSGASAASRNMSGQVSMGPAFIHHHPPKSRAIGNNSATSPRVVVTQPNTKYTFKITVSPNKPPAVSPGVVSPTFELTNLLNHPDHYVETENIQHLTDPTLAHVDRISETRKLSMGSDDAAYTQALLVHQKARMERLQRELEIQKKKLDKLKSEVNEMENNLTRRRLKRSNSISQIPSLEEMQQLRSCNRQLQIDIDCLTKEIDLFQARGPHFNPSAIHNFYDNIGFVGPVPPKPKDQRSIIKTPKTQDTEDDEGAQWNCTACTFLNHPALIRCEQCEMPRHF
B4: guanine nucleotide exchange factor ARHGEF18 (protein, UniProt Q6ZSZ5 1-1361)
chain: MGDDQEDDFPRRLSESMEDLSLDLGALQGSEYLQDLGLGAPSHSQPGETPDSRPTGEEPGRDSLFSSLAGSQDLSRRRSWERSRSCSESWRRLSLDASAVDEEPCLPRTLASLALNLPGGGLKTWTQGCLSGGGTPAESPGKECDSPKKRGRSRSVPVSFYEIRSPEISPGLEVPTPPVQGLEPPVLECMEKDHVEPDHVLIVQQVLQELRQYHGARQRACMSASPGGAHSNLTWFEFLSESEDGAGKNEKSDKSTSVKRRLSCLRSRVTRQKEKGKSPAHLKDKGQDARERRECVNGHQLLQGTFSGPSSCPLCGKPFLSSASLKEHPRGTLLSDGSPALSRNVGMTVSQKGGPQPTPSPAGPGTQLGPITGEMDEADSAFLKFKQTADDSLSLTSPNTESIFVEDPYTASLRSEIESDGHEFEAESWSLAVDAAYAKKQKREVVKRQDVLYELMQTEVHHVRTLKIMLKVYSRALQEELQFSSKAIGRLFPCADDLLETHSHFLARLKERRQESLEEGSDRNYVIQKIGDLLVQQFSGENGERMKEKYGVFCSGHNEAVSHYKLLLQQNKKFQNLIKKIGNFSIVRRLGVQECILLVTQRITKYPVLVERIIQNTEAGTEDYEDLTQALNLIKDIISQVDAKVSECEKGQRLREIAGKMDLKSSSKLKNGLTFRKEDMLQRQLHLEGMLCWKTTSGRLKDILAILLTDVLLLLQEKDQKYVFASVDSKPPVISLQKLIVREVANEEKAMFLISASLQGPEMYEIYTSSKEDRNAWMAHIQRAVESCPDEEEGPFSLPEEERKVVEARATRLRDFQERLSMKDQLIAQSLLEKQQIYLEMAEMGGLEDLPQPRGLFRGGDPSETLQGELILKSAMSEIEGIQSLICRQLGSANGQAEDGGSSTGPPRRAETFAGYDCTNSPTKNGSFKKKVSSTDPRPRDWRGPPNSPDLKLSDSDIPGSSEESPQVVEAPGTESDPRLPTVLESELVQRIQTLSQLLLNLQAVIAHQDSYVETQRAAIQEREKQFRLQSTRGNLLLEQERQRNFEKQREERAALEKLQSQLRHEQQRWERERQWQHQELERAGARLQEREGEARQLRERLEQERAELERQRQAYQHDLERLREAQRAVERERERLELLRRLKKQNTAPGALPPDTLAEAQPPSHPPSFNGEGLEGPRVSMLPSGVGPEYAERPEVARRDSAPTENRLAKSDVPIQLLSATNQFQRQAAVQQQIPTKLAASTKGGKDKGGKSRGSQRWESSASFDLKQQLLLNKLMGKDESTSRNRRSLSPILPGRHSPAPPPDPGFPAPSPPPADSPSEGFSLKAGGTALLPGPPAPSPLPATPLSAKEDASKEDVIFF
B5: TAB1 (protein, UniProt Q15750 1-504)
chain: MAAQRRSLLQSEQQPSWTDDLPLCHLSGVGSASNRSYSADGKGTESHPPEDSWLKFRSENNCFLYGVFNGYDGNRVTNFVAQRLSAELLLGQLNAEHAEADVRRVLLQAFDVVERSFLESIDDALAEKASLQSQLPEGVPQHQLPPQYQKILERLKTLEREISGGAMAVVAVLLNNKLYVANVGTNRALLCKSTVDGLQVTQLNVDHTTENEDELFRLSQLGLDAGKIKQVGIICGQESTRRIGDYKVKYGYTDIDLLSAAKSKPIIAEPEIHGAQPLDGVTGFLVLMSEGLYKALEAAHGPGQANQEIAAMIDTEFAKQTSLDAVAQAVVDRVKRIHSDTFASGGERARFCPRHEDMTLLVRNFGYPLGEMSQPTPSPAPAAGGRVYPVSVPYSSAQSTSKTSVTLSLVMPSQGQMVNGAHSASTLDEATPTLTNQSPTLTLQSTNTHTQSSSSSSDGGLFRSRPAHSLPPGEDGRVEPYVDFAEFYRLWSVDHGEQSVVTAP
B6: TRAF family member-associated NFκB activator TANK (protein, UniProt Q92844 1-425)
chain: MDKNIGEQLNKAYEAFRQACMDRDSAVKELQQKTENYEQRIREQQEQLSLQQTIIDKLKSQLLLVNSTQDNNYGCVPLLEDSETRKNNLTLDQPQDKVISGIAREKLPKVRRQEVSSPRKETSARSLGSPLLHERGNIEKTFWDLKEEFHKICMLAKAQKDHLSKLNIPDTATETQCSVPIQCTDKTDKQEALFKPQAKDDINRGAPSITSVTPRGLCRDEEDTSFESLSKFNVKFPPMDNDSTFLHSTPERPGILSPATSEAVCQEKFNMEFRDNPGNFVKTEETLFEIQGIDPIASAIQNLKTTDKTKPSNLVNTCIRTTLDRAACLPPGDHNALYVNSFPLLDPSDAPFPSLDSPGKAIRGPQQPIWKPFPNQDSDSVVLSGTDSELHIPRVCEFCQAVFPPSITSRGDFLRHLNSHFNGET
B7: TNF receptor-associated factor TRAF1 (protein, UniProt Q13077 1-416)
chain: MASSSGSSPRPAPDENEFPFGCPPTVCQDPKEPRALCCAGCLSENPRNGEDQICPKCRGEDLQSISPGSRLRTQEKAHPEVAEAGIGCPFAGVGCSFKGSPQSVQEHEVTSQTSHLNLLLGFMKQWKARLGCGLESGPMALEQNLSDLQLQAAVEVAGDLEVDCYRAPCSESQEELALQHFMKEKLLAELEGKLRVFENIVAVLNKEVEASHLALATSIHQSQLDRERILSLEQRVVELQQTLAQKDQALGKLEQSLRLMEEASFDGTFLWKITNVTRRCHESACGRTVSLFSPAFYTAKYGYKLCLRLYLNGDGTGKRTHLSLFIVIMRGEYDALLPWPFRNKVTFMLLDQNNREHAIDAFRPDLSSASFQRPQSETNVASGCPLFFPLSKLQSPKHAYVKDDTMFLKCIVETST

target: T1, MAP3K7 (TAK1), C-terminal His-GSG-Flag tagged bait; assay: affinity purification with mass spectrometry

| binding | Binder |
| --- | --- |
| binds | B1 |
| binds | B2 |
| binds | B3 |
| binds | B4 |
| binds | B5 |

target: T2, TRAF2, C-terminal His-GSG-Flag tagged bait (wild type); assay: affinity purification with mass spectrometry

| binding | Binder |
| --- | --- |
| binds | B6 |
| binds | B7 |
